Laboratory results: PubChem BioAssay AID1259405 (NCATS, 2018)

Screen: 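Silenced genes that increase secreted GFP made by CHO cells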 (primary screen)
System: Chinese hamster CHO-K1 ovary cells with stable secreted eGFP expression
Reagents: single siRNA against mouse genes, 0.8 pmol siRNA per well (2 µl of 400 nM stock)
Timing: 3 days
Measured: 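Percent of the per-plate non-targeting control median for intracellular GFP per well by laser scanning cytometry and for cell viability by ATP luminescence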
Reading the numbers: GFP, % of control: higher = more GFP per well, higher productivity; viability (ATP), % of control: higher = more viable cells (more ATP)
Call rule: 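a knock-down is called active if GFP reaches 120% or more of non-targeting control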
The deposit covers about 50,000 reagents; shown is a part drawn at random. In the full data, about 4,000 (8%) were called active. 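Mouse siRNA library applied to hamster cells; one well for each siRNA.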 The numbers tell different reagents against one gene apart. No sequences are given here.

no.	target	reagent no.	GFP, % of control	viability (ATP), % of control	call
1	Ifna11 (GeneID 15964)	1	99.3	57.2	inactive
2	Ifna11 (GeneID 15964)	2	111	66.2	inactive
3	Ifna11 (GeneID 15964)	3	88.5	73.4	inactive
4	Tmem229b (GeneID 268567)	1	90.3	67.1	inactive
5	Tmem229b (GeneID 268567)	2	57.9	78.8	inactive
6	Tmem229b (GeneID 268567)	3	40.3	64.3	inactive
7	Ttc32 (GeneID 75516)	1	98.2	88.1	inactive
8	Ttc32 (GeneID 75516)	2	127	74.6	active
9	Ttc32 (GeneID 75516)	3	91.2	72.9	inactive
10	Or7g21 (GeneID 258557)	1	132	90.3	active
11	Or7g21 (GeneID 258557)	2	110	59.7	inactive
12	Or7g21 (GeneID 258557)	3	61.1	78	inactive
13	Tbxas1 (GeneID 21391)	1	86.6	69.5	inactive
14	Tbxas1 (GeneID 21391)	2	59.7	71	inactive
15	Tbxas1 (GeneID 21391)	3	76.8	60	inactive
16	Tcp11l2 (GeneID 216198)	1	94.4	105	inactive
17	Tcp11l2 (GeneID 216198)	2	60.9	68.3	inactive
18	Tcp11l2 (GeneID 216198)	3	106	38.2	inactive
19	Tarm1 (GeneID 245126)	1	77.5	45.9	inactive
20	Tarm1 (GeneID 245126)	2	74.8	89.6	inactive
21	Tarm1 (GeneID 245126)	3	49.8	56.9	inactive
22	Ramp2 (GeneID 54409)	1	71.9	111	inactive
23	Ramp2 (GeneID 54409)	2	48.4	40.8	inactive
24	Ramp2 (GeneID 54409)	3	57.3	90.5	inactive
25	Erfe (GeneID 227358)	1	79.7	77.8	inactive
26	Erfe (GeneID 227358)	2	85.1	50.6	inactive
27	Erfe (GeneID 227358)	3	82.5	35.7	inactive
28	Utp3 (GeneID 65961)	1	73.3	51.6	inactive
29	Utp3 (GeneID 65961)	2	83.8	82.9	inactive
30	Utp3 (GeneID 65961)	3	59.1	66.2	inactive
31	Smr3a (GeneID 20599)	1	78.3	48.6	inactive
32	Smr3a (GeneID 20599)	2	34	56.9	inactive
33	Smr3a (GeneID 20599)	3	43.2	42.5	inactive
34	Phf11a (GeneID 219131)	1	103	71.7	inactive
35	Phf11a (GeneID 219131)	2	72.6	63.2	inactive
36	Phf11a (GeneID 219131)	3	56.4	63.5	inactive

Part of the list above, set out differently.
target,reagent no.,"GFP, % of control","viability (ATP), % of control",call
Utp3 (GeneID 65961),1,73.3,51.6,inactive
Utp3 (GeneID 65961),2,83.8,82.9,inactive
Utp3 (GeneID 65961),3,59.1,66.2,inactive
Smr3a (GeneID 20599),1,78.3,48.6,inactive
